Values from PubChem BioAssay AID1508597 (Cure First, 2020).
This is a random part of the about 2,100 reagents, in one setting of the screen. 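Calls flag viability under 80% in either arm, not effects specific to rucaparib; the reference for percent is not stated.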 Unmarked entries are inactive. The numbers tell different reagents against one gene apart. A reagent listed more than once was tested more than once; the source does not tell the runs apart. Not given: the 100% reference.

Purpose: 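Knock-downs altering ovarian cancer cell survival with or without PARP inhibitor rucaparib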 (primary screen)
Cells: human ovarian carcinoma lines grown from tumours: OCI-P5x (papillary serous) and OCI-C5x (clear cell)
Knock-down reagent: siRNA pool against human genes, 1.25 pmol siRNA per well
Time to read-out: 72 h or 96 h, depending on the cell culture
Treatment: rucaparib 20 µM (about IC30) or vehicle, present until read-out
Rucaparib or vehicle: Vehicle
Cell line: OCI-P5x (serous)
Measurement: 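Luminescent ATP-based viability assay read 72 or 96 h after transfection, depending on culture, given as normalised percent viability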
Scale: viability, normalised: higher = more viable cells remaining
Active means: 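a well counts as a hit if its normalised viability is under 80 percent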
Calls: active = viability under 80%; inactive = viability 80% or more

| Gene | pool no. | technical replicate | viability, normalised (%) |
| --- | --- | --- | --- |
| BID (BH3 interacting domain death agonist) | 1 | 1 | 51.2 (active) |
| BID (BH3 interacting domain death agonist) | 1 | 2 | 53.8 (active) |
| BID (BH3 interacting domain death agonist) | 1 | 3 | 54.4 (active) |
| PHF11 (PHD finger protein 11) | 1 | 1 | 40.4 (active) |
| PHF11 (PHD finger protein 11) | 1 | 2 | 59.5 (active) |
| PHF11 (PHD finger protein 11) | 1 | 3 | 64.9 (active) |
| DPF1 (double PHD fingers 1) | 1 | 1 | 55 (active) |
| DPF1 (double PHD fingers 1) | 1 | 2 | 60.3 (active) |
| DPF1 (double PHD fingers 1) | 1 | 3 | 61.3 (active) |
| TLR7 (toll like receptor 7) | 1 | 1 | 74.5 (active) |
| TLR7 (toll like receptor 7) | 1 | 2 | 70.3 (active) |
| TLR7 (toll like receptor 7) | 1 | 3 | 91.3 |
| ALPK3 (alpha kinase 3) | 1 | 1 | 62.3 (active) |
| ALPK3 (alpha kinase 3) | 1 | 2 | 85.2 |
| ALPK3 (alpha kinase 3) | 1 | 3 | 62.3 (active) |
| ABCG2 (ATP binding cassette subfamily G member 2 (JR blood group)) | 1 | 1 | 42.6 (active) |
| ABCG2 (ATP binding cassette subfamily G member 2 (JR blood group)) | 1 | 2 | 85 |
| ABCG2 (ATP binding cassette subfamily G member 2 (JR blood group)) | 1 | 3 | 64.6 (active) |
| MAST4 | 1 | 1 | 77 (active) |
| MAST4 | 1 | 2 | 79.8 (active) |
| MAST4 | 1 | 3 | 71.9 (active) |
| BPTF (bromodomain PHD finger transcription factor) | 1 | 1 | 52.4 (active) |
| BPTF (bromodomain PHD finger transcription factor) | 1 | 2 | 56.9 (active) |
| BPTF (bromodomain PHD finger transcription factor) | 1 | 3 | 63.4 (active) |
| DEAF1 (DEAF1 transcription factor) | 1 | 1 | 58.3 (active) |
| DEAF1 (DEAF1 transcription factor) | 1 | 2 | 74.2 (active) |
| DEAF1 (DEAF1 transcription factor) | 1 | 3 | 62.5 (active) |
| TEX14 (testis expressed 14, intercellular bridge forming factor) | 1 | 1 | 87.7 |
| TEX14 (testis expressed 14, intercellular bridge forming factor) | 1 | 2 | 68.1 (active) |
| TEX14 (testis expressed 14, intercellular bridge forming factor) | 1 | 3 | 76 (active) |
| PGK1 (phosphoglycerate kinase 1) | 1 | 1 | 49.4 (active) |
| PGK1 (phosphoglycerate kinase 1) | 1 | 2 | 61.6 (active) |
| PGK1 (phosphoglycerate kinase 1) | 1 | 3 | 58.5 (active) |
| IRAK1 (interleukin 1 receptor associated kinase 1) | 1 | 1 | 71.5 (active) |
| IRAK1 (interleukin 1 receptor associated kinase 1) | 1 | 2 | 66.4 (active) |
| IRAK1 (interleukin 1 receptor associated kinase 1) | 1 | 3 | 56.1 (active) |
| MBD4 (methyl-CpG binding domain 4, DNA glycosylase) | 1 | 1 | 84 |
| MBD4 (methyl-CpG binding domain 4, DNA glycosylase) | 1 | 1 | 58 (active) |
| MBD4 (methyl-CpG binding domain 4, DNA glycosylase) | 1 | 2 | 81.3 |
| MBD4 (methyl-CpG binding domain 4, DNA glycosylase) | 1 | 2 | 33.8 (active) |
| MBD4 (methyl-CpG binding domain 4, DNA glycosylase) | 1 | 3 | 67.5 (active) |
| MBD4 (methyl-CpG binding domain 4, DNA glycosylase) | 1 | 3 | 102 |
| DRD1 (dopamine receptor D1) | 1 | 1 | 51.6 (active) |
| DRD1 (dopamine receptor D1) | 1 | 2 | 55.4 (active) |
| DRD1 (dopamine receptor D1) | 1 | 3 | 73.1 (active) |

In a second layout: entries from further up.
Gene | pool no. | technical replicate | viability, normalised (%)
TEX14 (testis expressed 14, intercellular bridge forming factor) | 1 | 3 | 76 (active)
PGK1 (phosphoglycerate kinase 1) | 1 | 1 | 49.4 (active)
PGK1 (phosphoglycerate kinase 1) | 1 | 2 | 61.6 (active)
PGK1 (phosphoglycerate kinase 1) | 1 | 3 | 58.5 (active)
IRAK1 (interleukin 1 receptor associated kinase 1) | 1 | 1 | 71.5 (active)

Additional reagents:
| Gene | pool no. | technical replicate | viability, normalised (%) |
| --- | --- | --- | --- |
| TNF (tumor necrosis factor) | 1 | 1 | 50.7 (active) |
| TNF (tumor necrosis factor) | 1 | 2 | 61.3 (active) |
| TNF (tumor necrosis factor) | 1 | 3 | 55.8 (active) |
| PFKFB3 (6-phosphofructo-2-kinase/fructose-2,6-biphosphatase 3) | 1 | 1 | 59.4 (active) |
| PFKFB3 (6-phosphofructo-2-kinase/fructose-2,6-biphosphatase 3) | 1 | 2 | 49 (active) |
| PFKFB3 (6-phosphofructo-2-kinase/fructose-2,6-biphosphatase 3) | 1 | 3 | 52.9 (active) |
| DMTF1 (cyclin D binding myb like transcription factor 1) | 1 | 1 | 63.2 (active) |
| DMTF1 (cyclin D binding myb like transcription factor 1) | 1 | 2 | 69.4 (active) |
| DMTF1 (cyclin D binding myb like transcription factor 1) | 1 | 3 | 66.4 (active) |
| SSB (small RNA binding exonuclease protection factor La) | 1 | 1 | 44.5 (active) |
| SSB (small RNA binding exonuclease protection factor La) | 1 | 2 | 47.7 (active) |
| SSB (small RNA binding exonuclease protection factor La) | 1 | 3 | 99 |
| PMS2 (PMS1 homolog 2, mismatch repair system component) | 1 | 1 | 155 |
| PMS2 (PMS1 homolog 2, mismatch repair system component) | 1 | 2 | 162 |
| PMS2 (PMS1 homolog 2, mismatch repair system component) | 1 | 3 | 162 |
| FANCE (FA complementation group E) | 1 | 1 | 71.9 (active) |
| FANCE (FA complementation group E) | 1 | 2 | 75.6 (active) |
| FANCE (FA complementation group E) | 1 | 3 | 79.9 (active) |
| NFAM1 (NFAT activating protein with ITAM motif 1) | 1 | 1 | 58.9 (active) |
| NFAM1 (NFAT activating protein with ITAM motif 1) | 1 | 2 | 66 (active) |
| NFAM1 (NFAT activating protein with ITAM motif 1) | 1 | 3 | 73.5 (active) |
| XRCC2 (X-ray repair cross complementing 2) | 1 | 1 | 64.4 (active) |
| XRCC2 (X-ray repair cross complementing 2) | 1 | 2 | 42.4 (active) |
| XRCC2 (X-ray repair cross complementing 2) | 1 | 3 | 51.6 (active) |
| MECOM (MDS1 and EVI1 complex locus) | 1 | 1 | 81 |
| MECOM (MDS1 and EVI1 complex locus) | 1 | 2 | 87.4 |
| MECOM (MDS1 and EVI1 complex locus) | 1 | 3 | 86.8 |
| MECOM (MDS1 and EVI1 complex locus) | 2 | 1 | 53.7 (active) |
| MECOM (MDS1 and EVI1 complex locus) | 2 | 2 | 47.9 (active) |
| MECOM (MDS1 and EVI1 complex locus) | 2 | 3 | 64 (active) |
